Record: PubChem BioAssay AID504786 (Drosophila RNAi Screening Center, 2011)

Assay: 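Fly genes required for HIF-dependent transcription when hypoxia is mimicked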 (primary screen)
Cell system: Drosophila S2 cells with a stable HIF luciferase reporter
Reagent: long dsRNA against Drosophila genes, about 0.2 µg dsRNA per well of a 384-well plate
Duration: three days of knock-down, then 20 h of DFO before reading
Treatment: desferrioxamine (DFO) at 100 µM, an iron chelator that mimics hypoxia, for 20 h
Measurement: 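Firefly luciferase driven by the mouse ldh-a hypoxia-response element, measured after 20 h of 100 µM DFO; z-scores per plate, higher means more signal lost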
Reading the numbers: z-score: higher = stronger loss of HIF reporter signal
The screen tested about 21,000 reagents; shown is an unselected part of those that have a named target and a result. 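Primary screen; positive scores mean lost reporter signal, so the sign may be inverted from the usual convention.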 Reagents against one gene are numbered here. A plus sign joins genes that one reagent is predicted to hit. Not all columns of the deposit are shown. No sequences are given here.

{"gene":"CG13113","dsRNA no.":1,"z-score, replicate 1":-0.3}
{"gene":"CG4250","dsRNA no.":1,"z-score, replicate 1":-0.2}
{"gene":"CG5439","dsRNA no.":1,"z-score, replicate 1":-0.3}
{"gene":"Amun","dsRNA no.":1,"z-score, replicate 1":3}
{"gene":"CG32219","dsRNA no.":1,"z-score, replicate 1":-0.5}
{"gene":"Hex-t1","dsRNA no.":1,"z-score, replicate 1":-0.3}
{"gene":"CG12061","dsRNA no.":1,"z-score, replicate 1":0}
{"gene":"kud","dsRNA no.":1,"z-score, replicate 1":-0.3}
{"gene":"mei-P22","dsRNA no.":1,"z-score, replicate 1":0}
{"gene":"ics","dsRNA no.":1,"z-score, replicate 1":-0.4}
{"gene":"CG4049","dsRNA no.":1,"z-score, replicate 1":0.3}
{"gene":"cuff","dsRNA no.":1,"z-score, replicate 1":-0.1}
{"gene":"Nipsnap","dsRNA no.":1,"z-score, replicate 1":-0.3}
{"gene":"CG15155","dsRNA no.":1,"z-score, replicate 1":1.9}

3 entries from above, reformatted:
gene | dsRNA no. | z-score, replicate 1
CG32219 | 1 | -0.5
Hex-t1 | 1 | -0.3
CG12061 | 1 | 0

The results go on.
{"gene":"Agxt","dsRNA no.":1,"z-score, replicate 1":-0.3}
{"gene":"Iru","dsRNA no.":1,"z-score, replicate 1":-0.4}
{"gene":"5-HT1A","dsRNA no.":1,"z-score, replicate 1":0}
{"gene":"CG4230","dsRNA no.":1,"z-score, replicate 1":-0.4}
{"gene":"CG7714","dsRNA no.":1,"z-score, replicate 1":-1.1}
{"gene":"CG31161","dsRNA no.":1,"z-score, replicate 1":-0.2}
{"gene":"CG42326","dsRNA no.":1,"z-score, replicate 1":-0.3}
{"gene":"CG42326","dsRNA no.":2,"z-score, replicate 1":-0.3}
{"gene":"drd","dsRNA no.":1,"z-score, replicate 1":-0.3}
{"gene":"CG13708","dsRNA no.":1,"z-score, replicate 1":-0.3}
{"gene":"CG7386","dsRNA no.":1,"z-score, replicate 1":-0.4}
{"gene":"RhoGAP16F","dsRNA no.":1,"z-score, replicate 1":-0.3}
{"gene":"CG3588","dsRNA no.":1,"z-score, replicate 1":-0.1}
{"gene":"Nemp","dsRNA no.":1,"z-score, replicate 1":-0.1}
{"gene":"Mal-A5","dsRNA no.":1,"z-score, replicate 1":-0.3}
{"gene":"SkpF + CG5357 (retired record)","dsRNA no.":1,"z-score, replicate 1":-0.5}
{"gene":"AIF","dsRNA no.":1,"z-score, replicate 1":-0.1}
{"gene":"Taldo","dsRNA no.":1,"z-score, replicate 1":-0.3}
{"gene":"CG7900","dsRNA no.":1,"z-score, replicate 1":-0.3}
{"gene":"msopa","dsRNA no.":1,"z-score, replicate 1":1.9}
{"gene":"Lint-1","dsRNA no.":1,"z-score, replicate 1":-0.4}
{"gene":"Past1","dsRNA no.":1,"z-score, replicate 1":-0.4}
{"gene":"CngB","dsRNA no.":1,"z-score, replicate 1":-0.3}
{"gene":"CG8841","dsRNA no.":1,"z-score, replicate 1":-0.3}
{"gene":"CG4390","dsRNA no.":1,"z-score, replicate 1":-0.2}
{"gene":"CG7914","dsRNA no.":1,"z-score, replicate 1":-0.5}
